{
  "source": "patent US5266707A",
  "about": "“3,5-dihydroxyheptanoic acid derivatives” (Fujirebio Inc., priority 1991, dated 1993)",
  "note": "At least one compound was matched to its structure with a doubt left.",
  "data": [
    {"system": "automatic TBARS reproduction of the rat brain homogenate", "assay": "Measurement of Anti-oxidation Function (inhibition of automatic TBARS reproduction of rat brain homogenate)", "assay_type": "biochemical", "settings": "inhibition of TBARS in rat brain homogenate", "units": {"IC50": "µM"}, "values": [
      {"smiles": "Cc1c(CCC(O)CC(O)CC(=O)O)c2c(c(C)c1-n1cc3ccccc3c1)CC(C)(C)O2", "note": "(racemic) [Compound No. 94, sodium 7-[2,3-dihydro-5-isoindolyl-2,2,4,6-tetramethylbenzo[b]furan-7-yl]-3,5-dihydroxyheptanoate]", "IC50": 2.27},
      {"smiles": "Cc1c(CC[C@@H]2C[C@@H](O)CC(=O)O2)c2c(c(C)c1-n1cc3ccccc3c1)CC(C)(C)O2", "note": "(relative stereo) [Compound No. 14, trans-(±)-6-[2,3-dihydro-5-isoindolyl-2,2,4,6-tetramethylbenzo[b]furan-7-yl]ethyl-4-hydroxytetrahydropyran-2-one]", "IC50": 1.67},
      {"smiles": "CC(C)c1c(-n2cc3ccccc3c2)cc2c(c1CCC(O)CC(O)CC(=O)O)OC(C)(C)C2", "note": "(stereo not drawn) [Compound No. 79, sodium 7-[2,3-dihydro-5-isoindolyl-2,2-dimethyl-6-(propan-2-yl)benzo[b]furan-7-yl]-3,5-dihydroxyheptanoate]", "IC50": 3.26}
    ]}
  ]
}
